Results are given in words; binding and its absence hold for the method and conditions named. Some entries that bind do so weakly or less than the wild type.
What was measured:
[1] = target: T1, Structural Maintenance of Chromosome-1A (SMC1A) (human) (UniProt Q14683); assay: LI-COR based cell surface assay on tumor cells
T1 sequence (looked up): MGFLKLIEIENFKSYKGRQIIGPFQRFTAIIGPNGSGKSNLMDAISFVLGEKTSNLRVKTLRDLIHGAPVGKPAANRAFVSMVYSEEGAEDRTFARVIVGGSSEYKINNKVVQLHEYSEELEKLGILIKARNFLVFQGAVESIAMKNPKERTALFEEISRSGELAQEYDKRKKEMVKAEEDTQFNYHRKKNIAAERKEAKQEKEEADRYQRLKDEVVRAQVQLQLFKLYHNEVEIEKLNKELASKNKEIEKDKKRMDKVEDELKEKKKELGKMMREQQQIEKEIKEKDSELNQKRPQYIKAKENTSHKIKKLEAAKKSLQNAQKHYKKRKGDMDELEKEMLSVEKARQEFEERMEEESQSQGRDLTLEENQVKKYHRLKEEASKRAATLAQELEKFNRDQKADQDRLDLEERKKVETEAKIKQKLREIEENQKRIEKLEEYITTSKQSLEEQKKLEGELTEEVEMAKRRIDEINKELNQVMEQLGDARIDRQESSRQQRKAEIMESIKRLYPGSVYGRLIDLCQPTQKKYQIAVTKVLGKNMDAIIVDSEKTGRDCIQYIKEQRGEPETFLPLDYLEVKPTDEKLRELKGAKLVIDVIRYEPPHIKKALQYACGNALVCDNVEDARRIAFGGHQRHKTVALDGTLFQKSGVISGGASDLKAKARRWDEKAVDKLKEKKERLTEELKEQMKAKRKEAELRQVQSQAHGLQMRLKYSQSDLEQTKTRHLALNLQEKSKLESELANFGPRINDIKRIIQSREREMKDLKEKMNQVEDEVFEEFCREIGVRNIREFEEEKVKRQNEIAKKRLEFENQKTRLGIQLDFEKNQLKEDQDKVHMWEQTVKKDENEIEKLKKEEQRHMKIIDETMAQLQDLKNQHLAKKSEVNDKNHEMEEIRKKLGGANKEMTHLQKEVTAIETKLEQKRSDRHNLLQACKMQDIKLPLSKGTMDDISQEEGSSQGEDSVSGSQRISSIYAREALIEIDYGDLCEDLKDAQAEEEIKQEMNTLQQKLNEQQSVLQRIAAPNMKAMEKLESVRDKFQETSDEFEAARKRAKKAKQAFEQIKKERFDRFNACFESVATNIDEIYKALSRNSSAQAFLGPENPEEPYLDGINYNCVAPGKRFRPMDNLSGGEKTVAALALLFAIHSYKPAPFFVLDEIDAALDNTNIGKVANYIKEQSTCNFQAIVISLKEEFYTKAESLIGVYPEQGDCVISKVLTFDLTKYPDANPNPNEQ

[2] = target: T1, Structural Maintenance of Chromosome-1A (SMC1A) (human); assay: flow cytometry on live cancer cells and ICC
[3] = target: T1, Structural Maintenance of Chromosome-1A (SMC1A) (human); assay: cell surface binding on tumor cells; method not given

Measured: binding

B1: SMC1A4-chimeric antibody (antibody, V domains shown)
VH: VQLQQSGAELVKPGASVKLSCTASGFNIKDPYMHWVKQRPEQGLEWIGWITPANGNTKYDPKFQAKATITADTYSNTAYLQFSSLTSEDTAVYFCARSGDAYYWAWFAYWGQGTLVTVSA
VL: DVLMTQTPLSLTVSLGDQASISCRSSQSIVHSNGNTYLEWYLQKPGQSPKLLIYKVSNRFSGVSDRFSGSGSGTDFTLKISRVEAEDLGVYYCFQGPLYTFGGGTKLEIKR
notes: Chimeric IgG detected with anti-human secondary antibodies; also called chimeric SMC1A4; SMC1A4 chimeric monoclonal antibody
binds: all assays above

Reference: US20230340089A1 (CITY OF HOPE, published 2023)
